The source of these data is article PMC7862700.

This is a selection; strong and weak results do not stand in their true shares. At the low end of the ranking the order means little.

The test addresses SPI1 (UniProt P17947). Nature of the test: DAPPL (digital affinity profiling via proximity ligation, sequencing). To be noted: 10 mM Tris-HCl pH 7.5, 50 mM NaCl, 1 mM DTT, 4% glycerol, room temperature, 30 min; GST-TFs on glutathione beads, 16-mer random dsDNA library, 0.1% …; high values mean tight binding; double strand, one strand shown; scale: fold enrichment (6-mer frequency, TF over GST control).
Regarding TCCAGG, the binding signal amounted to 0.812.
The result for GCGAGC reads 0.907.
Next, CCGAGG: 0.667; TTGTGA: 0.807; ACAGAG: 0.725.
As to TAGACG, the binding signal worked out at 0.758.
Take AGCAAG: the binding signal was found to be 0.886.
As for TGAGCG, the binding signal is 0.58.
The result for GGCACA reads 0.838; that for CAGTGG, 0.467; that for GCCGTA, 0.754.
The result for ACAGTA reads 0.876; that for CGTGGA, 0.503.
The result for GGGGTA reads 0.734; that for TCGGAA, 0.515.
The sequence TCGTGC gave a binding signal of 0.756.
The result for GTCGAA reads 0.623.
Next, AGCGTT: 0.912; CAGAGA: 0.612; CGTGCT: 0.826.
Next, CGGTCG: 0.402; CAGGTT: 0.661; TTGGAC: 0.964.
As for GCATGA, the binding signal was determined as 0.781.
The result for GACAGC reads 0.748; that for GTGATC, 0.779.
The result for TACCGT reads 0.661; that for CGAGAG, 0.369.
The result for GACCGT reads 0.449.
The sequence GTCGTA gave a binding signal of 0.651.
Next, GCATCA: 0.74.
Next, GTAGGC: 0.737.
The result for TCGGGA reads 0.381; that for GTTAGT, 0.764; that for GTGAGC, 0.383.
For the sequence GGCCAT, the binding signal was 0.922.
The result for GGTGGC reads 0.718; that for CAGTGT, 0.652; that for AGAAAG, 0.912.
